Measured values as given in PMC10451539.
Residue numbers refer to the chain shown, from its start. These are yes or no findings as the source states them, for the method shown. In cells and extracts the contact can be indirect. Some binding calls cover weakened binding; strength is not graded here. Sequences can lack the tags named with a protein.

Chains of the proteins cited; added tags and fusions are not shown.
UniProt Q9UKB1: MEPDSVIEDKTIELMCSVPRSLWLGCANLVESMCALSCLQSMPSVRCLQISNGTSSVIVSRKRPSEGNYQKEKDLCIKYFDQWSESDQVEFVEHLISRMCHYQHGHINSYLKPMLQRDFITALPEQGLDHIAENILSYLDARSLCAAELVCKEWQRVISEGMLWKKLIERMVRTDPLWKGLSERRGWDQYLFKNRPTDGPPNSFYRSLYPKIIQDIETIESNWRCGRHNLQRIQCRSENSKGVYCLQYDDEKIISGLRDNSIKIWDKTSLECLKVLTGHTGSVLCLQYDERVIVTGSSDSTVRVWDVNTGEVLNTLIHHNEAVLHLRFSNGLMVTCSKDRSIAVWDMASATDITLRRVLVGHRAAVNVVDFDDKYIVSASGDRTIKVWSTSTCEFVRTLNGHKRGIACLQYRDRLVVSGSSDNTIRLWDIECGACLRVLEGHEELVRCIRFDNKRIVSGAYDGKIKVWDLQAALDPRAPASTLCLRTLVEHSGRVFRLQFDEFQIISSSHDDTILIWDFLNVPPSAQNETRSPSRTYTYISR

Legend:
[1] = target: T1, EGFP-Myc-TM-Nrf2 (triple serine-alanine mutant Nrf2 S374/408/433→A) (UniProt Q16236); assay: co-IP; Keap1-null MEFs co-transfected 48 h; MG132 (10 μM, 4 h); without or with the AMPK activator A769662 (50 μM, 4 h); EGFP-Myc-Nrf2 pulled down with GFP-Trap; blots for MYC and HA
T1 sequence: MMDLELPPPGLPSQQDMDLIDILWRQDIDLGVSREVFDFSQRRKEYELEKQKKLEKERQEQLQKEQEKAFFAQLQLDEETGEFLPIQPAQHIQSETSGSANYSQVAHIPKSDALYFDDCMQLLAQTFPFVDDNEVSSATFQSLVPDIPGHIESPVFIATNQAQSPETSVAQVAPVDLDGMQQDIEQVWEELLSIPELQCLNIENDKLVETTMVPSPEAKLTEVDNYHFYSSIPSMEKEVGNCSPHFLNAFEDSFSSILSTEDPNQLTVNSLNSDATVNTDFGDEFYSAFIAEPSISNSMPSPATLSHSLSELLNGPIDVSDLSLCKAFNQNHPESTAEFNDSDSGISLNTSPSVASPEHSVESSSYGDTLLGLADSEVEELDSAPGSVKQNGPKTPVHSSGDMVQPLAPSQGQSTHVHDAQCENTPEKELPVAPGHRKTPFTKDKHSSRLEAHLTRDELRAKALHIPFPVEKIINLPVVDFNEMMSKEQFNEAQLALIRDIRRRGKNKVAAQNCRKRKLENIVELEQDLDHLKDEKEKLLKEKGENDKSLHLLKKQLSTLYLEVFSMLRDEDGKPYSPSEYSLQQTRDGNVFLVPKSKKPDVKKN

[2] = target: T2, EGFP-Myc-WT-Nrf2 (Nuclear factor E2 p45-related factor 2, wild type) (UniProt Q16236); assay: as above
T2 sequence: T1 sequence with A374S, A408S, A433S

[3] = target: T1, EGFP-Myc-TM-Nrf2 (triple serine-alanine mutant Nrf2 S374/408/433→A); assay: proximity ligation; Keap1-null MEFs co-transfected 48 h; MG132 (10 μM, 4 h); without or with A769662 (50 μM, 4 h); fixed with 4% paraformaldehyde; primary antibodies against HA tag (βTrCP2) and MYC tag (Nrf2); Duolink PLA, confocal microscopy
[4] = target: T2, EGFP-Myc-WT-Nrf2 (Nuclear factor E2 p45-related factor 2, wild type); assay: as above

Measured: binding

HA-tagged βTrCP2 (FBXW11) (from UniProt Q9UKB1 1-542)
binds: [1] | [2] | [3] | [4]
